# Measurements taken from US20040265918A1.
# Protein sequences, listed by entry. Tags and fused reporters are not part of them. Residues count along the entry.
# UniProt Q9QYF3, residues 2-1828: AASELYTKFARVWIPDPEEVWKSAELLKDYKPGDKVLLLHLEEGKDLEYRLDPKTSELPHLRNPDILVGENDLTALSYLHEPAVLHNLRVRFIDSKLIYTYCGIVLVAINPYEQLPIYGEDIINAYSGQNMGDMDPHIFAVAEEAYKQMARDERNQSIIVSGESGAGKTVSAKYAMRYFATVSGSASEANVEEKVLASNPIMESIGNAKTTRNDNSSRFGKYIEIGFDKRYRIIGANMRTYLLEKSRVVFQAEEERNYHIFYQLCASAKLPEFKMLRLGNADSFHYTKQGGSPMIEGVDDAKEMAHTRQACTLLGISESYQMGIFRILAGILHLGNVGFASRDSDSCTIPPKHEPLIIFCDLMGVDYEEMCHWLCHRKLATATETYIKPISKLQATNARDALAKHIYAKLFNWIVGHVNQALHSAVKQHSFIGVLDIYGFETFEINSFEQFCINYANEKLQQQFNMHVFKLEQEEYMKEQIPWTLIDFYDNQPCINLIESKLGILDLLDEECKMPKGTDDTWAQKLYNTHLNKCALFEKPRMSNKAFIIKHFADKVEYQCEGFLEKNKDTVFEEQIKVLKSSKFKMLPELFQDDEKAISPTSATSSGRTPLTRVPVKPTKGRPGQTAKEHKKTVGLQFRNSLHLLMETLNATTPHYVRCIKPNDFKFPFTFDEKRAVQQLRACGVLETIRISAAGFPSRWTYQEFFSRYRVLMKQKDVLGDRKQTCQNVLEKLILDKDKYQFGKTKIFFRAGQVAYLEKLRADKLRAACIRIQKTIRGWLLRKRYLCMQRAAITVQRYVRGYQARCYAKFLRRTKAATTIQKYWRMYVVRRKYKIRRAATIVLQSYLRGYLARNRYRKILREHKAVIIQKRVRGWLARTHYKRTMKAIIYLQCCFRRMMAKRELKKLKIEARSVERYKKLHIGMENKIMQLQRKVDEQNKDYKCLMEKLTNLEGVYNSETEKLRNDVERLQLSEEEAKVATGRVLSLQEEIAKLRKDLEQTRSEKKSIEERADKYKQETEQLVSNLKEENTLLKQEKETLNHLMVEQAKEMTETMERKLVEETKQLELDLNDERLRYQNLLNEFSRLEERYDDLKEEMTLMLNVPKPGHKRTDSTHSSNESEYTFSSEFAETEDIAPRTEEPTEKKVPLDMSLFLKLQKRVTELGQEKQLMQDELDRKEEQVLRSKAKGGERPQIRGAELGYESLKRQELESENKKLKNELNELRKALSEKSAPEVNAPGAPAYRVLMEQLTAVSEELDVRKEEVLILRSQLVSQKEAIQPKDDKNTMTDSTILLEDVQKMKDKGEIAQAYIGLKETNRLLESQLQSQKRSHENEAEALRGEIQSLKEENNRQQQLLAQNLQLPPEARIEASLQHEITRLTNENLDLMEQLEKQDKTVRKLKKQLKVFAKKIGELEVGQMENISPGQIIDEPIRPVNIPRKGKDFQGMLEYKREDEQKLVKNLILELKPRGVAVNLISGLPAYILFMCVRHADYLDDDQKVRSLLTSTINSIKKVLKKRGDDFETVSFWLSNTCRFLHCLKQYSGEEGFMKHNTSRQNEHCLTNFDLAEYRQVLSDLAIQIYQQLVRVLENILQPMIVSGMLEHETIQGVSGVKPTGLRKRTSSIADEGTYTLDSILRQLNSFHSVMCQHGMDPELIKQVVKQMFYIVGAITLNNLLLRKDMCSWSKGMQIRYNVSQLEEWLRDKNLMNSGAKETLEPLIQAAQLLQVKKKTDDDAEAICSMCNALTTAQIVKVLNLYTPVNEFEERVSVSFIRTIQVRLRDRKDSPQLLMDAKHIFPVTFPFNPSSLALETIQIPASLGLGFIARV
# These are yes or no findings as the source states them, for the method shown. Some binding calls cover weakened binding; strength is not graded here.
# B1: ?TRα2 (truncated thyroid hormone receptor α2) (receptor, rat, UniProt P63059 256-492, looked up)
# chain: MEIMSLRAAVRYDPESDTLTLSGEMAVKREQLKNGGLGVVSDAIFELGKSLSAFNLDDTEVALLQAVLLMSTDRSGLLCVDKIEKSQEAYLLAFEHYVNHRKHNIPHFWPKLLMKEREVQSSILYKGAAAEGRPGGSLGVHPEGQQLLGMHVVQGPQVRQLEQQFGEAGSLRGPVLQHQSPKSPQQRLLELLHRSGILHSRAVCGEDDSSEASSLSSSSSDEDTEVFEDLAGKAASP
# Target: myosin V (native, F-actin bound, in rat astrocyte lysates) (rat) (UniProt Q9QYF3)
# Test: recap of the experiments of the earlier example
binder,measurement,value
B1,binding,binds
